PubChem BioAssay AID1159584 | Peter MacCallum Cancer Centre – 2016
Screen: 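Knock-downs that harm CDH1-null cells more than parental MCF10A cells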 (primary screen). Cell system: human MCF10A breast epithelial cells, parental and CDH1-null. Knock-down reagent: siRNA against human genes. Read-out: 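Cell viability by CellTiter-Glo ATP luminescence, each line scaled to the mean of mock wells across plates, then CDH1-null over parental ratio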. Direction: CDH1-null / parental viability ratio: higher = CDH1-null cells survive relatively better than parental; CDH1-null viability vs mock: higher = more viable CDH1-null cells.
Here is an unselected part of about 18,000 reagents. Not all columns of the deposit are shown. Not stated in the record: the amount of reagent, the time to read-out.

gene knocked down | CDH1-null / parental viability ratio | CDH1-null viability vs mock (fraction of mock)
TMEM229B | 0.9 | 0.73
HES3 | 0.86 | 0.69
TECPR2 | 1.05 | 0.92
RAB25 | 1.33 | 1.13
AQP12A | 1.07 | 0.6
H2AC8 | 1.07 | 0.64
SPATA33 | 1.05 | 0.59
C2orf69 | 0.95 | 0.59
DMBX1 | 1.31 | 0.68
TMEM39A | 1.14 | 0.82
CPLX4 | 1.22 | 1.12
TMEM51 | 1.62 | 0.55
CHTOP | 0.88 | 0.77
TNFSF10 | 1.06 | 1.06
CIDEC | 0.98 | 1
ADCK1 | 1.15 | 0.94
NOPCHAP1 | 1.04 | 1.04
SYT5 | 1.27 | 0.9

The list goes on (2 carried over from the part before).
gene knocked down | CDH1-null / parental viability ratio | CDH1-null viability vs mock (fraction of mock)
NOPCHAP1 | 1.04 | 1.04
SYT5 | 1.27 | 0.9
CCDC27 | 0.92 | 0.94
WDR44 | 2.19 | 0.7
PARVG | 1.3 | 0.78
CFP | 1.08 | 0.64
SHOC2 | 1.47 | 0.94
RRP9 | 0.9 | 0.57
CREB3 | 1.12 | 0.85
FLACC1 | 1.15 | 0.62
ATP2C1 | 0.91 | 0.8
PSG2 | 1.18 | 0.97
C4BPB | 1.19 | 0.86
SSU72 | 0.87 | 0.7
LGALS4 | 1.14 | 0.83
OR5F1 | 1.07 | 0.64
RPP25L | 0.95 | 0.38
MPLKIP | 1.1 | 0.86
PCDHGA5 | 0.96 | 0.78
KRT84 | 0.76 | 0.52
PAPSS1 | 0.97 | 0.94
S100P | 0.98 | 0.39
TSLIG3B | 0.68 | 0.5
CD1B | 0.87 | 0.46
PPP4R4 | 1.77 | 0.62
CACTIN | 1.35 | 0.54
GKN2 | 0.94 | 0.89
GPATCH4 | 0.98 | 0.54
RALB | 0.65 | 0.3
C15orf40 | 1.18 | 0.9
